PubChem BioAssay AID493014 (National Center for Advancing Translational Sciences (NCATS), 2011)
The whole screen tested about 340,000 compounds, of which about 170 (0.05%) were called active. The inconclusive results got no clear call from the source; some entries with a clear call stand among them for comparison. Calls come from the whole dose curve; as a rule, active = well fitted inhibition curve with a large enough effect in the signal ratio, with a control signal flat (not every such curve was filed as active); inconclusive = small, poorly fitted or top-dose-only effect, or effect the other way, or a change in a side signal; inactive = flat fitted curve, though single readings scatter; the % refers to the signal ratio. Where the call is inconclusive, the potency comes from a doubtful curve fit.

Assay: qHTS Assay to Find Inhibitors of Chronic Active B-Cell Receptor Signaling;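 for activity change, negative = inhibition: plate controls were basal doxycycline-induced cells for no effect and cells given 10 µM MG132 for full effect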
Conditions: ABC-DLBCL IkBa-CBG/CBR reporter, luminescence ratio (green luciferase fused to IkBa over red control in TMD8 lymphoma cells), 4 h; activity change, negative = inhibition: at 46.1 µM (top of the series)
In short: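 TMD8 ABC-DLBCL cells carrying doxycycline-inducible green luciferase fused to IkappaBalpha plus unfused red luciferase were exposed to compounds (up to 46 uM) for 4 hrs at 37C. Activity came from the overlap-corrected green/red luminescence ratio.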
Potency is the fitted concentration of half-maximal effect.

With `C#CCOCCOCCOCCNc1nc(N2CCN(C(=O)CCCCCCCCCCNC(=O)[C@H](CO)n3cc(CCCSC)nn3)CC2)nc(N2CCN(C(=O)CCCCCCCCCCNC(=O)[C@H](CCCCN)n3cc(C[C@@H](C)CC)nn3)CC2)n1` as the compound, how does the activity change, negative = inhibition read?
Its activity change, negative = inhibition is inconclusive: 4.78%.

With `COc1ccc(CN(C(=O)CSc2nnc(-c3ccccc3C)o2)c2ccc(F)cc2)cc1` as the compound, how does the activity change, negative = inhibition read?
The activity change, negative = inhibition was “inactive”.

With `COc1cc(NC(=O)c2cccs2)c(OC)cc1NC(=O)CCC(=O)Nc1cccc2ncccc12` as the compound, how does the activity change, negative = inhibition read?
Its activity change, negative = inhibition is inconclusive: 17.9%.

With `Cc1c(N2C(=O)c3cccc4cccc(c34)C2=O)cnn1C` as the compound, how does the Potency read?
The Potency was inconclusive: 35.5 µM [falling, partial curve, poor fit].

With `Cc1ccc(N(C)C(=O)n2cnc3ccccc32)cc1` as the compound, how does the activity change, negative = inhibition read?
The activity change, negative = inhibition was inconclusive: -0.0174%.

With `CC(C)(C)c1csc(NC(=O)c2ccc(Br)o2)n1` as the compound, how does the activity change, negative = inhibition read?
The activity change, negative = inhibition was inconclusive: 4.41%.

With `COc1cccc(CNc2ncc(-c3ccc(Br)cc3)n2C)c1` as the compound, how does the Potency read?
The Potency was inconclusive: 11.2 µM [falling, partial curve, poor fit].

For `Cc1nn(C)c(=O)n1-c1ccc(OCc2ccccc2)cc1`, which Potency is on record?
The Potency was inconclusive: 29.1 µM [falling, single point].

For `O=C(NCCc1ccccc1)c1c(O)c2cccc3c2n(c1=O)CC3`, which Potency is on record?
Its Potency is inconclusive: 0.13 µM [rising, full curve, poor fit].

For `O=C(N/N=C/c1cccc(Br)c1)c1ccc(Cn2cc(Br)cn2)o1`, which activity change, negative = inhibition is on record?
The activity change, negative = inhibition was “inactive”.

With `Cc1ccc(Sc2ccc(NC(=O)CCN3C(=O)NC4(CCCC4)C3=O)cc2)c(C)c1` as the compound, how does the Potency read?
The Potency was inconclusive: 18.4 µM [falling, partial curve, poor fit].

Which activity change, negative = inhibition does the source give for `CN(C)C(=O)Nc1ccccc1` here?
The activity change, negative = inhibition was inconclusive: 0.696%.

With `COc1ccc(/C(C)=N/NC(=O)OC(C)(C)C)cc1[N+](=O)[O-]` as the compound, how does the activity change, negative = inhibition read?
The activity change, negative = inhibition was “inactive”.

Which activity change, negative = inhibition does the source give for `COc1ccc(C)cc1S(=O)(=O)N1CCC(C(=O)NCCc2ccccc2)CC1` here?
The activity change, negative = inhibition was inconclusive: -0.71%.

For `c1ccc(CCc2nc(-c3ccccc3)no2)cc1`, which Potency is on record?
Its Potency is inconclusive: 22.4 µM [falling, single point].

Which activity change, negative = inhibition does the source give for `O=C(c1ccc(OC2CCN(C(=O)c3cccnc3)CC2)cc1)N1CCCCCC1` here?
The activity change, negative = inhibition was inconclusive: -2.05%.

For `CCOC(=O)c1cnc(-n2nc(C)cc2C)nc1NCCO`, which activity change, negative = inhibition is on record?
Its activity change, negative = inhibition is “inactive”.

Which activity change, negative = inhibition does the source give for `CCc1ccccc1N(CC(=O)Nc1cccnc1)S(=O)(=O)c1ccccc1` here?
Its activity change, negative = inhibition is inconclusive: 7.93%.

Which activity change, negative = inhibition does the source give for `COc1ccc2oc(C(=O)OCC(=O)N3CCCC3=O)c(C)c2c1` here?
Its activity change, negative = inhibition is inconclusive: 6.29%.

With `C=CCn1c(O)c2ccc(C(=O)N=NC(=O)COc3ccccc3F)cc2c1O` as the compound, how does the activity change, negative = inhibition read?
The activity change, negative = inhibition was inconclusive: 18.9%.

Which activity change, negative = inhibition does the source give for `CC(=O)Nc1ccc(S(=O)(=O)N2CCN(S(=O)(=O)N3CCCCCC3)CC2)cc1` here?
The activity change, negative = inhibition was inconclusive: 2.21%.
